Laboratory results as given in paper doi:10.1101/182626.
Substitutions are numbered along the chain they refer to. Numbers in names are those of the source. No constants are given. Whether binding was seen depends on the method and setting. Binding seen in cells or lysates may run through a third protein. Some results given as binding are weak or reduced against the parent protein; the word gives no strength. For some of these results: Sequences can lack the tags named with a protein.

Amino acid sequences for entries named in this document (tags omitted). A change or cut given only in a name is not applied to a line headed by its entry.
UniProt Q6ZNE5, whole entry: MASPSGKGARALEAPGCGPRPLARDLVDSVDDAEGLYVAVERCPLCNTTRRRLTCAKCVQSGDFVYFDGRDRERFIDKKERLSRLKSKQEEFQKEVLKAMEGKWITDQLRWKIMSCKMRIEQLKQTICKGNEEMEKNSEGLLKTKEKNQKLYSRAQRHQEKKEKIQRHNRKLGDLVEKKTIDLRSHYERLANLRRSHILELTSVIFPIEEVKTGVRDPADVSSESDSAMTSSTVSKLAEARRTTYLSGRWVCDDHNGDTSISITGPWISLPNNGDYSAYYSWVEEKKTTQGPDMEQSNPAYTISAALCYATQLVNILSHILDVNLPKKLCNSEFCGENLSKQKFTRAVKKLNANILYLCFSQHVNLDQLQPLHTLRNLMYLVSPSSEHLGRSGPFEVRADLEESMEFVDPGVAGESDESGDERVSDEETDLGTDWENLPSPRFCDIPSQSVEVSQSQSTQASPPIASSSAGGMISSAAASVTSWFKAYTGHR
UniProt O95721, whole entry: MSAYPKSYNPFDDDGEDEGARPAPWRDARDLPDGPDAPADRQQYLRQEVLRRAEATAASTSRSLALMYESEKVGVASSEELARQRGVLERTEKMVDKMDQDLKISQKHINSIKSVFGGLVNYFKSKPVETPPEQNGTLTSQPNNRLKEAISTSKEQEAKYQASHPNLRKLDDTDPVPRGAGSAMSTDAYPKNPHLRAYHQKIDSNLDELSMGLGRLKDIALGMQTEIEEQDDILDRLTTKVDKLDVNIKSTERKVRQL

B1: mCherry-Stx17 (syntaxin 17, wild type), P56962 1-302 (protein)
chain: MSEDEEKVKLRRLEPAIQKFIKIVIPTDLERLRKHQINIEKYQRCRIWDKLHEEHINAGRTVQQLRSNIREIEKLCLKVRKDDLVLLKRMIDPVKEEASAATAEFLQLHLESVEELKKQFNDEETLLQPPLTRSMTVGGAFHTTEAEASSQSLTQIYALPEIPQDQNAAESWETLEADLIELSQLVTDFSLLVNSQQEKIDSIADHVNSAAVNVEEGTKNLGKAAKYKLAALPVAGALIGGMVGGPIGLLAGFKVAGIAAALGGGVLGFTGGKLIQRKKQKMMEKLTSSCPDLPSQTDKKCS
B2: mCherry-Stx17[Q196G], P56962 1-302 (protein)
chain: B1 chain with Q196G

What was measured:
Assay in all cases: FRET or BRET
EGFP-Atg14 = EGFP-Atg14 (UniProt Q6ZNE5)
EGFP-SNAP29 = EGFP-SNAP29 (UniProt O95721)
EGFP-VAMP7 = EGFP-VAMP7 (UniProt P51809)
[1] = target: T1, EGFP-VAMP8 (human), Q9BV40; conditions: remark: other sources report otherwise
T1 chain: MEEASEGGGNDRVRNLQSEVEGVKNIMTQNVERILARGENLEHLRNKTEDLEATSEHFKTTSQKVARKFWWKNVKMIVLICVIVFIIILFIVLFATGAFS

EGFP-VAMP7, P51809 = target: T2, EGFP-VAMP7, P51809; conditions: remark: other sources report otherwise
T2 chain: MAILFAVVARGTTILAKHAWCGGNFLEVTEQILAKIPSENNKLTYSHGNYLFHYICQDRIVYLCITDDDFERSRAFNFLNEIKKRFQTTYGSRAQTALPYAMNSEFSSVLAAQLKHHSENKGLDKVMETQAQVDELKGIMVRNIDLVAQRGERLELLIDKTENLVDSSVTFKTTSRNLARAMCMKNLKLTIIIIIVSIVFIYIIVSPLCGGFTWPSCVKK

| Molecule | binding (EGFP-Atg14) | binding (EGFP-SNAP29) | binding (EGFP-VAMP7) | binding [1] | binding (EGFP-VAMP7, P51809) |
| --- | --- | --- | --- | --- | --- |
| mCherry-Stx17[S2E] phosphomimetic mutant (from UniProt P56962 1-302) | binds | – | – | – | – |
| mCherry-Stx17[Q196G] (from UniProt P56962 1-302) | – | no binding | – | – | – |
| mCherry-Stx17[ED3-6K] charge mutant (from UniProt P56962 1-302) | binds | binds | binds | – | – |
| mCherry-Stx17[S2A] phosphonull mutant (from UniProt P56962 1-302) | binds | binds | binds | – | – |
| mCherry-Stx17 (syntaxin 17, wild type) (from UniProt P56962 1-302) | binds | binds | binds | – | – |
| B1 | – | – | – | no binding | – |
| B2 | – | – | – | – | no binding |
